Measurements: paper PMC12670160, “A drug-repurposing screen of FDA- and EMA-approved drugs identifies two NF-κB inhibitors active against eumycetoma” (Journal of Antimicrobial Chemotherapy, 2025)
Counter-ions that a name gives are not always drawn. Like-named read-outs stand apart in the source and are kept apart here. Hit rate of the full screen: of about 5,300 compounds, about 130 (2.5%) showed an effect of 50% or more. The list shows a part of the results. Square brackets hold non-standard residues; d marks the D form. Peptide text beside a SMILES is read from it.

Tested on: M. mycetomatis strain mm55
Settings: primary screen, metabolic activity vs growth control, 96 h, 2 µM, inhibitor

SMILES | % viability [%] | % viability (Madurella mycetomatis metabolic activity at 2µM (%)) [%]
Cc1coc2c1C(=O)C(=O)c1c-2ccc2c1CCCC2(C)C [ONC0005254, tanshinone iia tanshinone b] | 103.2 | 
CNCCCC12CCC(c3ccccc31)c1ccccc12 [ONC0005591, maprotiline hydrochloride] | 104.4 | 
CCc1c(O)cc(O)c(C(=O)c2ccc(OCCN3CCOCC3)c(OC)c2)c1CC(=O)N(CCOC)CCOC [ONC0004413, kw2478] | 116.6 | 
O=C1Cc2c([nH]c3ccc(Br)cc23)-c2ccccc2N1 [ONC0003056, kenpaullone] | 78.06 | 
COc1ccc(CCN2CCN(CCCc3ccccc3)CC2)cc1OC [ONC0000181, cutamesine] | 57.86 | 
OC(c1cc(C(F)(F)F)nc2c(C(F)(F)F)cccc12)C1CCCCN1 (stereo not drawn) [ONC0002823, mefloquine hydrochloride] | 88.08 | 
COc1ccc2c(c1)c(CC(=O)N1CCOCC1)c(C)n2C(=O)c1ccc(Cl)cc1 [ONC0005055, bml190] | 69.14 | 
CC(C)(C)n1nc(-c2cccc3ccccc23)c2c(N)ncnc21 [ONC0000858, 1naphthylpp1] | 54.79 | 
C[C@@H]1C[C@H]2[C@@H]3C[C@H](F)C4=CC(=O)C=C[C@]4(C)[C@@]3(Cl)[C@@H](O)C[C@]2(C)[C@H]1C(=O)COC(=O)C(C)(C)C [ONC0002815, clocortolonepivalate] | 83.51 | 
O=C(O[C@@H]1Cc2c(O)cc(O)cc2O[C@@H]1c1ccc(O)c(O)c1)c1cc(O)c(O)c(O)c1 [ONC0001169, epicatechin gallate] | 138 | 
COC(=O)N[C@H](C(=O)N1CC2(CC2)C[C@H]1c1ncc(-c2ccc3c(c2)C(F)(F)c2cc(-c4ccc5nc([C@@H]6[C@H]7CC[C@H](C7)N6C(=O)[C@@H](NC(=O)OC)C(C)C)[nH]c5c4)ccc2-3)[nH]1)C(C)C [ONC0001967, ledipasvir] | 73.81 | 
CCCCCCC(=O)OC1CC(C)(C)NC(C)(C)C1 [ONC0000017, tmph] | 78.92 | 
Cc1c(C)c2c(c(C)c1OC(=O)CCC(=O)O)CC[C@@](C)(CCC[C@H](C)CCC[C@H](C)CCCC(C)C)O2 [ONC0002768, dalphatocopheryl succinate] | 141.6 | 
CCCCCC(=O)O[C@]1(C(C)=O)CC[C@H]2[C@@H]3CCC4=CC(=O)CC[C@]4(C)[C@H]3CC[C@@]21C [ONC0000554, hydroxyprogesterone caproate] | 87.95 | 
Oc1cc2c(cc1O)CN(C(=S)NCCc1ccc(Cl)cc1)CCC2 [ONC0003537, capsazepine] | 106.3 | 
CC1(C)C[C@@H]1C(=O)N/C(=C\CCCCSC[C@H](N)C(=O)O)C(=O)O [ONC0000332, cilastatin sodium] | 62.86 | 
Cc1cc(C)cc(OCC2CNC(=O)O2)c1 (stereo not drawn) [ONC0003959, metaxalone] | 81.5 | 
O[C@H]1CC[C@H](Nc2ncc3nc(Nc4c(F)cc(F)cc4F)n([C@H]4CCOC4)c3n2)CC1 [ONC0002078, tanzisertib] | 56.93 | 
c1nc2nc(Nc3ccc(N4CCOCC4)cc3)nc(NC3CCCCC3)c2[nH]1 [ONC0000909, reversine] | 87.07 | 

Entries of single compounds, quoted from the list:
`COc1ccc(CCN2CCN(CCCc3ccccc3)CC2)cc1OC` [ONC0000181, cutamesine] in the list: % viability [%]: 57.86
`CC(C)(C)n1nc(-c2cccc3ccccc23)c2c(N)ncnc21` [ONC0000858, 1naphthylpp1] in the list: % viability [%]: 54.79
`CNCCCC12CCC(c3ccccc31)c1ccccc12` [ONC0005591, maprotiline hydrochloride] in the list: % viability [%]: 104.4

(cont.)

SMILES | % viability [%] | % viability (Madurella mycetomatis metabolic activity at 2µM (%)) [%]
CCc1oc2ccccc2c1C(=O)c1ccc(OCC(=O)O)cc1 [ONC0005583, kt433] | 75.49 | 
CCN(CCCOc1ccc2c(Nc3cc(CC(=O)Nc4cccc(F)c4)n[nH]3)ncnc2c1)CCOP(=O)(O)O [ONC0002222, azd1152] | 73.5 | 
O=C(O)c1ccc(-c2ccc3cc(C45CC6CC(CC(C6)C4)C5)c(O)cc3c2)cc1 [ONC0003535, cd1530] | 106.7 | 
O=C(O)[C@H](O)[C@@H](O)[C@H](O[C@@H]1O[C@H](CO)[C@H](O)[C@H](O)[C@H]1O)[C@H](O)CO [ONC0002742, lactobionic acid] | 93.71 | 
COc1ccc(NC(=O)c2ccc(C(=N)N(C)C)cc2)c(C(=O)Nc2ccc(Cl)cn2)c1 [ONC0002531, betrixaban] | 64.85 | 
CC(C)OC(=O)CNC(=O)[C@H](CS)NC(=O)CC[C@H](N)C(=O)O [ONC0002985, glutathionemonoisopropylester] | 70.59 | 
CC(=O)NCC(=O)N[C@H](CCC(=O)O)C(=O)O [ONC0001750, nacetylglycyldglutamicacid] (Ac-Gly-[dE]-OH) | 65.78 | 
C[C@@H](O)[C@H]1C(=O)N2C(C(=O)O)=C(S[C@@H]3CN[C@H](C(=O)N(C)C)C3)[C@H](C)[C@H]12 [ONC0004098, meropenem] | 114.1 | 
O=C(O)CCNc1cc(N2CCc3ccccc3CC2)nc(-c2cccnc2)n1 [ONC0001873, gskj2] | 86.07 | 
CCN(CC)C(=O)/C(C#N)=C/c1cc(O)c(O)c([N+](=O)[O-])c1 [ONC0004538, entacapone] | 54.37 | 
C[C@H]1OC(O)[C@H](O)[C@H](O)[C@H]1O (stereo partly drawn) [ONC0004779, l rhamnose monohydrate] | 103.9 | 
CN(C)CCN(C)CCc1ccc(Cl)c(Cl)c1 [ONC0000240, bd1047] | 69.13 | 
S=C(NCCc1ccccn1)Nc1ccc(Br)cn1 [ONC0002520, trovirdine] | 50.89 | 
CCCCCCCCCCCCOS(=O)(=O)O [ONC0002181, sodiumdodecylsulfate] |  | 96.71
C[C@@H]1O[C@@H](OC[C@H]2O[C@@H](Oc3c(-c4ccc(OCCO)c(OCCO)c4)oc4cc(OCCO)cc(O)c4c3=O)[C@H](O)[C@@H](O)[C@@H]2O)[C@H](O)[C@H](O)[C@H]1O [ONC0005511, troxerutin] | 76.48 | 
Nc1nc(N)nc(NC2CC2)n1 [ONC0003991, cyromazine] | 70.81 | 
CCCC(=O)C1CCN(c2ncnc3c2CN(C(=O)c2ccc(-c4ccccc4)cc2)CC3)CC1 [ONC0001406, pkthpp] | 99.71 | 
CC1(C)O[C@@H]2C[C@H]3[C@@H]4CCC5=CC(=O)CC[C@]5(C)[C@@]4(F)[C@@H](O)C[C@]3(C)[C@]2(C(=O)CCl)O1 [ONC0005110, halcinonide] | 121 | 
CCCCCCCCCCCCCCCC(=O)OC[C@H](COP(=O)([O-])OCC[N+](C)(C)C)OC(=O)CCCCCCCCCCCCCCC [ONC0003939, colfoscerilpalmitate] | 68.76 | 

SMILES | % viability [%] | % viability (Madurella mycetomatis metabolic activity at 2µM (%)) [%]
N#Cc1ccc(COC[C@H]2O[C@@H](n3c(NCc4ccc(Cl)c(Cl)c4)nc4c(N)ncnc43)[C@H](O)[C@@H]2O)cc1 [ONC0003150, ver155008] | 71.46 | 
O=C(O)/C=C/c1c[nH]cn1 [ONC0003737, cisurocanicacid] | 146.4 | 
C[C@]12C=CC(=O)C=C1CC[C@H]1[C@@H]3C[C@@H](O)[C@](O)(C(=O)CO)[C@@]3(C)C[C@H](O)[C@@]12F [ONC0005317, triamcinolone] | 97.58 | 
COc1cccc(Nc2c(C(N)=O)cnc3c(C)cc(S(=O)(=O)c4cccc(C(=O)N(C)C)c4)cc23)c1 [ONC0004382, gsk256066] | 115.4 | 
Nc1c(CC(=O)O)cccc1C(=O)c1ccc(Br)cc1 [ONC0005181, bromfenac sodium] | 92.06 | 
OCCN1CCN(CCCN2c3ccccc3C=Cc3ccccc32)CC1 [ONC0002368, opipramol] | 62.79 | 
C=CCNc1nc(NCC=C)nc(N2CCN(C(c3ccc(F)cc3)c3ccc(F)cc3)CC2)n1 [ONC0003264, almitrine dimesilate] | 84.51 | 
COc1cc2c(cc1OCCCN1CCCC1)N=C(N)C21CCC1 [ONC0001507, a366] | 112.1 | 
CN1C(=O)OC(C)(C)C1=O [ONC0004222, trimethadione] | 96.24 | 
CC(=O)CCCCn1c(=O)c2c(ncn2C)n(C)c1=O [ONC0002382, pentoxifylline] | 116.2 | 
CC(C)NC[C@H](O)COc1cccc2ccccc12 [ONC0000523, dexpropranolol hydrochloride r] | 63.41 | 
O=C(O)CCCCC(CCSCc1ccccc1)SCc1ccccc1 (stereo not drawn) [ONC0005053, cpi613] | 152 | 
CC1(C)CC[C@]2(C(=O)O)CC[C@]3(C)C(=CC[C@@H]4[C@@]5(C)CC[C@H](O)C(C)(C)[C@@H]5CC[C@]43C)[C@@H]2C1 [ONC0004932, oleanolic acid caryophyllin] | 92.73 | 
O=c1c(-c2ccc(O)cc2)coc2cc(O)ccc12 [ONC0001487, daidzein] | 80.72 | 
Cc1c(C(=O)Nc2ccc(N3CCC(N4CCOCC4)CC3)c(C#N)c2)cnn1-c1ccc(Cl)cc1 [ONC0004434, y320] | 145.6 | 
N[C@@H](Cc1cc(CP(=O)(O)O)cc(-c2ccccc2Cl)c1)C(=O)O [ONC0001567, sdz220581] | 105.2 | 
CC(C)=CCc1c(O)cc(O)c2c(=O)c(O)c(-c3ccc(C(F)(F)F)cc3)oc12 [ONC0001270, sng1153] | 67.11 | 
CC(C)(C)c1nc(-c2cccc(NS(=O)(=O)c3c(F)cccc3F)c2F)c(-c2ccnc(N)n2)s1 [ONC0005271, dabrafenib gsk2118436] | 115.1 | 
CC[C@H](C(=O)N1CCCC[C@H]1C(=O)O[C@H](CCc1ccc(OC)c(OC)c1)c1cccc(OCC(=O)NCCNC(=O)COc2cccc([C@@H](CCc3ccc(OC)c(OC)c3)OC(=O)[C@@H]3CCCCN3C(=O)[C@@H](CC)c3cc(OC)c(OC)c(OC)c3)c2)c1)c1cc(OC)c(OC)c(OC)c1 [ONC0002247, rimiducid] | 119.4 | 
